Laboratory results as given in the supplement of paper PMC7661543.
The effect of the compound repeats well; differences between the knockouts mostly do not.

Tested on: BT-20
Assay: relative cell number vs DMSO control (72 h) (% of DMSO); higher = less growth inhibition (more cells)
Description: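 QMAP-Seq: a pool of 5 breast cancer cell lines (ZR-75-1, SKBR3, HCC-38, MDA-MB-231, BT-20), each carrying 12 doxycycline-inducible Cas9 sgRNA perturbations (11 knockouts plus non-targeting sgNT), was treated with compounds for 72 h at four 10-fold doses (10 nM-10 uM or 1 nM-1 uM range). Barcodes were amplified and sequenced, and cell number was interpolated from 293T spike-in standard curves. The result is expressed as % of the median of DMSO wells. Two biological replicates.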

Cc1ccccc1-n1c(Cn2cnc3c(N)ncnc32)nc2cccc(C)c2c1=O
Conditions | relative cell number
sgRNA knockout: sgATF3, 10 nM | 107
sgRNA knockout: sgATF3, 100 nM | 113
sgRNA knockout: sgATF3, 1000 nM | 95.2
sgRNA knockout: sgATF3, 10000 nM | 116
sgRNA knockout: sgATF4, 10 nM | 105
sgRNA knockout: sgATF4, 100 nM | 131
sgRNA knockout: sgATF4, 1000 nM | 101
sgRNA knockout: sgATF4, 10000 nM | 115
sgRNA knockout: sgATF6, 10 nM | 106
sgRNA knockout: sgATF6, 100 nM | 119
sgRNA knockout: sgATF6, 1000 nM | 73.7
sgRNA knockout: sgATF6, 10000 nM | 99.1
sgRNA knockout: sgATG7, 10 nM | 102
sgRNA knockout: sgATG7, 100 nM | 136
sgRNA knockout: sgATG7, 1000 nM | 98.3
sgRNA knockout: sgATG7, 10000 nM | 115
sgRNA knockout: sgERN1, 10 nM | 107
sgRNA knockout: sgERN1, 100 nM | 109
sgRNA knockout: sgERN1, 1000 nM | 85.3
sgRNA knockout: sgERN1, 10000 nM | 94
sgRNA knockout: sgHSF1, 10 nM | 90.2
sgRNA knockout: sgHSF1, 100 nM | 105
sgRNA knockout: sgHSF1, 1000 nM | 73.6
sgRNA knockout: sgHSF1, 10000 nM | 110
sgRNA knockout: sgHSF2, 10 nM | 103
sgRNA knockout: sgHSF2, 100 nM | 128
sgRNA knockout: sgHSF2, 1000 nM | 88
sgRNA knockout: sgHSF2, 10000 nM | 114.1
sgRNA knockout: sgKEAP1, 10 nM | 91.4
sgRNA knockout: sgKEAP1, 100 nM | 108
sgRNA knockout: sgKEAP1, 1000 nM | 88.7
sgRNA knockout: sgKEAP1, 10000 nM | 99.1
sgRNA knockout: sgNFE2L2, 10 nM | 115
sgRNA knockout: sgNFE2L2, 100 nM | 160
sgRNA knockout: sgNFE2L2, 1000 nM | 112
sgRNA knockout: sgNFE2L2, 10000 nM | 115
sgRNA knockout: sgSLC35F2, 10 nM | 109
sgRNA knockout: sgSLC35F2, 100 nM | 124
sgRNA knockout: sgSLC35F2, 1000 nM | 89.1
sgRNA knockout: sgSLC35F2, 10000 nM | 132
sgRNA knockout: sgXBP1, 10 nM | 97.9
sgRNA knockout: sgXBP1, 100 nM | 123
sgRNA knockout: sgXBP1, 1000 nM | 101
sgRNA knockout: sgXBP1, 10000 nM | 111

Cc1cnc(-c2cnc(NCCNc3ccc(C#N)cn3)nc2-c2ccc(Cl)cc2Cl)[nH]1
Conditions | relative cell number
sgRNA knockout: sgATF3, 10 nM | 103
sgRNA knockout: sgATF3, 100 nM | 98.16
sgRNA knockout: sgATF3, 1000 nM | 106
sgRNA knockout: sgATF3, 10000 nM | 106
sgRNA knockout: sgATF4, 10 nM | 93.9
sgRNA knockout: sgATF4, 100 nM | 112
sgRNA knockout: sgATF4, 1000 nM | 94.2
sgRNA knockout: sgATF4, 10000 nM | 112
sgRNA knockout: sgATF6, 10 nM | 79.4
sgRNA knockout: sgATF6, 100 nM | 94.97
sgRNA knockout: sgATF6, 1000 nM | 101
sgRNA knockout: sgATF6, 10000 nM | 101
sgRNA knockout: sgATG7, 10 nM | 93.5
sgRNA knockout: sgATG7, 100 nM | 94.8
sgRNA knockout: sgATG7, 1000 nM | 110
sgRNA knockout: sgATG7, 10000 nM | 98.7
sgRNA knockout: sgERN1, 10 nM | 90.06
sgRNA knockout: sgERN1, 100 nM | 97.9
sgRNA knockout: sgERN1, 1000 nM | 102
sgRNA knockout: sgERN1, 10000 nM | 115
sgRNA knockout: sgHSF1, 10 nM | 90.4
sgRNA knockout: sgHSF1, 100 nM | 85.8
sgRNA knockout: sgHSF1, 1000 nM | 103
sgRNA knockout: sgHSF1, 10000 nM | 110
sgRNA knockout: sgHSF2, 10 nM | 85.7
sgRNA knockout: sgHSF2, 100 nM | 94.6
sgRNA knockout: sgHSF2, 1000 nM | 106
sgRNA knockout: sgHSF2, 10000 nM | 130
sgRNA knockout: sgKEAP1, 10 nM | 97.6
sgRNA knockout: sgKEAP1, 100 nM | 79.9
sgRNA knockout: sgKEAP1, 1000 nM | 100
sgRNA knockout: sgKEAP1, 10000 nM | 110
sgRNA knockout: sgNFE2L2, 10 nM | 80.4
sgRNA knockout: sgNFE2L2, 100 nM | 97.2
sgRNA knockout: sgNFE2L2, 1000 nM | 99.5
sgRNA knockout: sgNFE2L2, 10000 nM | 121
sgRNA knockout: sgSLC35F2, 10 nM | 98.5
sgRNA knockout: sgSLC35F2, 100 nM | 103
sgRNA knockout: sgSLC35F2, 1000 nM | 91
sgRNA knockout: sgSLC35F2, 10000 nM | 116
sgRNA knockout: sgXBP1, 10 nM | 106
sgRNA knockout: sgXBP1, 100 nM | 101
sgRNA knockout: sgXBP1, 1000 nM | 104
sgRNA knockout: sgXBP1, 10000 nM | 112

Cc1cnc(Nc2ccc(OCCN3CCCC3)cc2)nc1Nc1cccc(S(=O)(=O)NC(C)(C)C)c1
Conditions | relative cell number
sgRNA knockout: sgATF3, 10 nM | 95.9
sgRNA knockout: sgATF3, 100 nM | 109
sgRNA knockout: sgATF3, 1000 nM | 83.6
sgRNA knockout: sgATF3, 10000 nM | 34.8
sgRNA knockout: sgATF4, 10 nM | 101
sgRNA knockout: sgATF4, 100 nM | 118
sgRNA knockout: sgATF4, 1000 nM | 71.9
sgRNA knockout: sgATF4, 10000 nM | 34.9
sgRNA knockout: sgATF6, 10 nM | 89.3
sgRNA knockout: sgATF6, 100 nM | 88.6
sgRNA knockout: sgATF6, 1000 nM | 81.7
sgRNA knockout: sgATF6, 10000 nM | 28.3
sgRNA knockout: sgATG7, 10 nM | 104
sgRNA knockout: sgATG7, 100 nM | 112
sgRNA knockout: sgATG7, 1000 nM | 77.6
sgRNA knockout: sgATG7, 10000 nM | 34.3
sgRNA knockout: sgERN1, 10 nM | 89.8
sgRNA knockout: sgERN1, 100 nM | 90.5
sgRNA knockout: sgERN1, 1000 nM | 70.8
sgRNA knockout: sgERN1, 10000 nM | 32.1
sgRNA knockout: sgHSF1, 10 nM | 90.3
sgRNA knockout: sgHSF1, 100 nM | 106
sgRNA knockout: sgHSF1, 1000 nM | 79
sgRNA knockout: sgHSF1, 10000 nM | 35.4
sgRNA knockout: sgHSF2, 10 nM | 100
sgRNA knockout: sgHSF2, 100 nM | 81.5
sgRNA knockout: sgHSF2, 1000 nM | 76
sgRNA knockout: sgHSF2, 10000 nM | 35.6
sgRNA knockout: sgKEAP1, 10 nM | 94.9
sgRNA knockout: sgKEAP1, 100 nM | 91.8
sgRNA knockout: sgKEAP1, 1000 nM | 74.1
sgRNA knockout: sgKEAP1, 10000 nM | 40.1
sgRNA knockout: sgNFE2L2, 10 nM | 114
sgRNA knockout: sgNFE2L2, 100 nM | 107
sgRNA knockout: sgNFE2L2, 1000 nM | 77.8
sgRNA knockout: sgNFE2L2, 10000 nM | 31
sgRNA knockout: sgSLC35F2, 10 nM | 110
sgRNA knockout: sgSLC35F2, 100 nM | 93.6
sgRNA knockout: sgSLC35F2, 1000 nM | 72.1
sgRNA knockout: sgSLC35F2, 10000 nM | 34.6
sgRNA knockout: sgXBP1, 10 nM | 100
sgRNA knockout: sgXBP1, 100 nM | 115
sgRNA knockout: sgXBP1, 1000 nM | 95
sgRNA knockout: sgXBP1, 10000 nM | 37.2
